In publication PMC5949353 one finds binding data, which are given here for two substances.

Sequences of proteins named here, by UniProt entry; tags and fusion partners are left off. A change or cut given only in a name is not applied to a line headed by its entry.
UniProt Q9BST9: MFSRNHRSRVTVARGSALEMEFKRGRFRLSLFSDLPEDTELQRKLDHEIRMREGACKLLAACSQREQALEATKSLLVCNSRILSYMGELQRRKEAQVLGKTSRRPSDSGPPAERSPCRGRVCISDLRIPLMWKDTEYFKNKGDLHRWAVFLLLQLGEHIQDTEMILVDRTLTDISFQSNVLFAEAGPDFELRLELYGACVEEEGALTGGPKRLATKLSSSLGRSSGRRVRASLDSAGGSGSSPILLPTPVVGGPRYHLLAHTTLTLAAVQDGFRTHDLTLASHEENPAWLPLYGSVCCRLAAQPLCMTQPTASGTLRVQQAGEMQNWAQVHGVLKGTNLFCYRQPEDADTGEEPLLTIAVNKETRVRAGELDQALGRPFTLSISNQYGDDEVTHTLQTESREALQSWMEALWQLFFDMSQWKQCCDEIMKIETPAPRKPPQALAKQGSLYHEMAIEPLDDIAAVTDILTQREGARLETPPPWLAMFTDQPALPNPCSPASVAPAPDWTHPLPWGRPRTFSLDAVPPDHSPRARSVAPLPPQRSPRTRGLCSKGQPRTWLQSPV
UniProt Q13153: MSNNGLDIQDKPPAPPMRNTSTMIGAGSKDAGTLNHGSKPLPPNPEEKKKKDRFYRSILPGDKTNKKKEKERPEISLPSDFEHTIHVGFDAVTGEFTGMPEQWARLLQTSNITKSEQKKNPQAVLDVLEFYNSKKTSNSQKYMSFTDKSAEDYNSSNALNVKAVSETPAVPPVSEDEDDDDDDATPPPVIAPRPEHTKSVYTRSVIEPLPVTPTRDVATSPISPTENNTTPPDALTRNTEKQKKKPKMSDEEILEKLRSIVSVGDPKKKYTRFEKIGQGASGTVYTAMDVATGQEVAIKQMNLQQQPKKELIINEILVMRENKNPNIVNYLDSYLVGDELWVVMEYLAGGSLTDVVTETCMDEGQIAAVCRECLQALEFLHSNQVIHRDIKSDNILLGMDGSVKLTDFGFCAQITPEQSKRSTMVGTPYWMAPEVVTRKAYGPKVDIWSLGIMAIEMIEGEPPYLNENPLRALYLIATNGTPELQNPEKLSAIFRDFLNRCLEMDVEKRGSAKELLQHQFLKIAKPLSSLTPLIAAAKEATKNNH
UniProt Q9QUI0: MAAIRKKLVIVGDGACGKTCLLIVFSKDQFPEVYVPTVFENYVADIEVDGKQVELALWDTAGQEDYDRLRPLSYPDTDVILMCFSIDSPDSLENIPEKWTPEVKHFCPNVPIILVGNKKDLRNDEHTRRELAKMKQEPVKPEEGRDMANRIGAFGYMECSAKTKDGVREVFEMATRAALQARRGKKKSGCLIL
UniProt P60766: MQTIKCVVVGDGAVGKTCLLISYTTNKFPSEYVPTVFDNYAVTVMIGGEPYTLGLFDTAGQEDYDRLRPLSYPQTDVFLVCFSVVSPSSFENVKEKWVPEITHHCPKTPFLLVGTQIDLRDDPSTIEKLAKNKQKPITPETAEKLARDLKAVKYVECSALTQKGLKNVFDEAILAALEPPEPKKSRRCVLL

These are yes or no findings as the source states them, for the method shown. In cells and extracts the contact can be indirect. Binding can be weak; no strength is given.

Experiment [1] concerns the target GST-RHOTEKIN (recombinant protein with the binding domain from Rhotekin) (UniProt Q9BST9). In words: pull-down; GST-PAK, GST-RTKN or GST on glutathione-agarose beads incubated overnight at 4°C with lysates of E16 cortices from WT or C3 KO embryos (50 mM Tris-HCl pH 7.5, 150 mM NaCl, 1 mM EDTA, 1 mM EGTA, 1% Triton X-100); washed three times with NETN buffer; western blot; only the target purified. For orientation: In western blotting, separated proteins are transferred to a membrane and probed.

The target in experiment [2] is GST-P21 activated kinase (recombinant protein with the binding domain from PAK1) (UniProt Q13153). The experiment is described as above.

Take RhoA (from UniProt Q9QUI0 1-193): the binding result in experiment [1] is reported as “binds”.

Turning to Cdc42 (from UniProt P60766 1-191), the binding entry in experiment [2] was “binds”.
